# Measured data: PubChem BioAssay AID1259405 (NCATS, 2018)
# Aim: 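Mouse-designed siRNAs used to find CHO productivity engineering targets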 (primary screen)
# Cells: Chinese hamster CHO-K1 ovary cells with stable secreted eGFP expression
# Reagent: single siRNA against mouse genes, 0.8 pmol siRNA per well (2 µl of 400 nM stock)
# Timing: 3 days
# Measurement: 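Percent of the per-plate non-targeting control median for intracellular GFP per well by laser scanning cytometry and for cell viability by ATP luminescence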
# Direction: GFP, % of control: higher = more GFP per well, higher productivity; viability (ATP), % of control: higher = more viable cells (more ATP)
# Hit rule: 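a knock-down is called active if GFP reaches 120% or more of non-targeting control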
# This is an unselected part of about 50,000 deposited reagents. Over the whole deposit, about 4,000 (8%) were called active. 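Mouse siRNA library applied to hamster cells; one well for each siRNA.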 Reagents against one gene are numbered here.
Gene,reagent,"GFP, % of control","viability (ATP), % of control",Call
"Serpinb5 (serine (or cysteine) peptidase inhibitor, clade B, member 5)",1,98.7,113,inactive
"Serpinb5 (serine (or cysteine) peptidase inhibitor, clade B, member 5)",2,104,104,inactive
"Serpinb5 (serine (or cysteine) peptidase inhibitor, clade B, member 5)",3,66.2,66.2,inactive
Or12e7 (olfactory receptor family 12 subfamily E member 7),1,151,75.9,active
Or12e7 (olfactory receptor family 12 subfamily E member 7),2,92.6,76.4,inactive
Or12e7 (olfactory receptor family 12 subfamily E member 7),3,89.5,73.1,inactive
Elmod1 (ELMO/CED-12 domain containing 1),1,66,32.6,inactive
Elmod1 (ELMO/CED-12 domain containing 1),2,88.6,46.6,inactive
Elmod1 (ELMO/CED-12 domain containing 1),3,84.5,70.9,inactive
Snrpa (small nuclear ribonucleoprotein polypeptide A),1,106,63.3,inactive
Snrpa (small nuclear ribonucleoprotein polypeptide A),2,35.2,67.5,inactive
Vmn1r24 (vomeronasal 1 receptor 24),1,110,94.1,inactive
Vmn1r24 (vomeronasal 1 receptor 24),2,80.7,90,inactive
Vmn1r24 (vomeronasal 1 receptor 24),3,99.8,110,inactive
Slc47a1,1,44.5,36,inactive
Slc47a1,2,38.8,43.1,inactive
Slc47a1,3,62.5,91.7,inactive
"Clcnka (chloride channel, voltage-sensitive Ka)",1,98.1,85.7,inactive
"Clcnka (chloride channel, voltage-sensitive Ka)",2,76.2,78,inactive
"Clcnka (chloride channel, voltage-sensitive Ka)",3,60.6,94,inactive
Foxa2 (forkhead box A2),1,58.5,75.3,inactive
Foxa2 (forkhead box A2),2,86.1,75.5,inactive
Or8b12 (olfactory receptor family 8 subfamily B member 12),1,88.8,69,inactive
Or8b12 (olfactory receptor family 8 subfamily B member 12),2,78.4,80.3,inactive
Or8b12 (olfactory receptor family 8 subfamily B member 12),3,81.6,81.4,inactive
Or51l14 (olfactory receptor family 51 subfamily L member 14),1,63.7,54.6,inactive
Or51l14 (olfactory receptor family 51 subfamily L member 14),2,83,80.8,inactive
Or51l14 (olfactory receptor family 51 subfamily L member 14),3,63.3,65.9,inactive
Slc35e3,1,78.2,83.6,inactive
Slc35e3,2,104,88.9,inactive
Slc35e3,3,79.3,76.9,inactive
"Fcgr4 (Fc receptor, IgG, low affinity IV)",1,125,104,active
"Fcgr4 (Fc receptor, IgG, low affinity IV)",2,45.2,50.4,inactive
"Fcgr4 (Fc receptor, IgG, low affinity IV)",3,41.9,55.7,inactive
"Nr1h5 (nuclear receptor subfamily 1, group H, member 5)",1,107,107,inactive
"Nr1h5 (nuclear receptor subfamily 1, group H, member 5)",2,118,57.7,inactive
"Nr1h5 (nuclear receptor subfamily 1, group H, member 5)",3,88.9,88.6,inactive
Baiap2l2 (BAI1-associated protein 2-like 2),1,32.1,62.5,inactive
Baiap2l2 (BAI1-associated protein 2-like 2),2,63.4,57.6,inactive
Baiap2l2 (BAI1-associated protein 2-like 2),3,83.5,73.3,inactive
Dnajc28 (DnaJ heat shock protein family (Hsp40) member C28),1,161,61.6,active
Dnajc28 (DnaJ heat shock protein family (Hsp40) member C28),2,61.1,36.7,inactive
Dnajc28 (DnaJ heat shock protein family (Hsp40) member C28),3,72.2,80,inactive
Nanos2 (nanos C2HC-type zinc finger 2),1,79,68,inactive
Nanos2 (nanos C2HC-type zinc finger 2),2,52.6,64,inactive
Nanos2 (nanos C2HC-type zinc finger 2),3,93.4,55.8,inactive
Or13c7d (olfactory receptor family 13 subfamily C member 7D),1,110,73.4,inactive
Or13c7d (olfactory receptor family 13 subfamily C member 7D),2,73.8,71.9,inactive
Or13c7d (olfactory receptor family 13 subfamily C member 7D),3,38.9,50.6,inactive

In a second layout: 11 of the entries above
Or51l14 (olfactory receptor family 51 subfamily L member 14) #2 → GFP, % of control = 83; viability (ATP), % of control = 80.8; Call = inactive
Or51l14 (olfactory receptor family 51 subfamily L member 14) #3 → GFP, % of control = 63.3; viability (ATP), % of control = 65.9; Call = inactive
Slc35e3 #1 → GFP, % of control = 78.2; viability (ATP), % of control = 83.6; Call = inactive
Slc35e3 #2 → GFP, % of control = 104; viability (ATP), % of control = 88.9; Call = inactive
Slc35e3 #3 → GFP, % of control = 79.3; viability (ATP), % of control = 76.9; Call = inactive
Fcgr4 (Fc receptor, IgG, low affinity IV) #1 → GFP, % of control = 125; viability (ATP), % of control = 104; Call = active
Fcgr4 (Fc receptor, IgG, low affinity IV) #2 → GFP, % of control = 45.2; viability (ATP), % of control = 50.4; Call = inactive
Fcgr4 (Fc receptor, IgG, low affinity IV) #3 → GFP, % of control = 41.9; viability (ATP), % of control = 55.7; Call = inactive
Nr1h5 (nuclear receptor subfamily 1, group H, member 5) #1 → GFP, % of control = 107; viability (ATP), % of control = 107; Call = inactive
Nr1h5 (nuclear receptor subfamily 1, group H, member 5) #2 → GFP, % of control = 118; viability (ATP), % of control = 57.7; Call = inactive
Nr1h5 (nuclear receptor subfamily 1, group H, member 5) #3 → GFP, % of control = 88.9; viability (ATP), % of control = 88.6; Call = inactive

The results go on:
Gene,reagent,"GFP, % of control","viability (ATP), % of control",Call
Rp1l1 (retinitis pigmentosa 1 homolog like 1),1,47.3,81.9,inactive
Rp1l1 (retinitis pigmentosa 1 homolog like 1),2,47.1,58,inactive
Rp1l1 (retinitis pigmentosa 1 homolog like 1),3,76.3,67.1,inactive
Glt1d1 (glycosyltransferase 1 domain containing 1),1,89.1,71.4,inactive
Glt1d1 (glycosyltransferase 1 domain containing 1),2,75.5,77,inactive
Glt1d1 (glycosyltransferase 1 domain containing 1),3,70.1,74.2,inactive
Aadacl2fm1 (AADACL2 family member 1),1,83.9,33.4,inactive
Aadacl2fm1 (AADACL2 family member 1),2,69.9,79.5,inactive
Aadacl2fm1 (AADACL2 family member 1),3,59.7,85.7,inactive
Npc1l1 (NPC1 like intracellular cholesterol transporter 1),1,72,60.8,inactive
Npc1l1 (NPC1 like intracellular cholesterol transporter 1),2,96.1,74.6,inactive
Npc1l1 (NPC1 like intracellular cholesterol transporter 1),3,0.0429,379,inactive
Zfp738 (zinc finger protein 738),1,97.5,58.4,inactive
Zfp738 (zinc finger protein 738),2,66,73.4,inactive
Zfp738 (zinc finger protein 738),3,95.9,71.5,inactive
Zfp738 (zinc finger protein 738),4,54.1,52.5,inactive
Zfp738 (zinc finger protein 738),5,78.2,99.5,inactive
Zfp738 (zinc finger protein 738),6,101,114,inactive
Vmn1r74 (vomeronasal 1 receptor 74),1,69.3,40.1,inactive
Vmn1r74 (vomeronasal 1 receptor 74),2,78.5,90.6,inactive
Vmn1r74 (vomeronasal 1 receptor 74),3,49.2,65.7,inactive
Chordc1 (cysteine and histidine rich domain containing 1),1,53.6,51.5,inactive
Chordc1 (cysteine and histidine rich domain containing 1),2,77.3,71.9,inactive
Chordc1 (cysteine and histidine rich domain containing 1),3,78.8,81.2,inactive
1810009J06Rik (RIKEN cDNA 1810009J06 gene),1,38.9,38.7,inactive
1810009J06Rik (RIKEN cDNA 1810009J06 gene),2,30.8,52,inactive
1810009J06Rik (RIKEN cDNA 1810009J06 gene),3,64.8,93.4,inactive
Gltpd2 (glycolipid transfer protein domain containing 2),1,60.8,40.5,inactive
Gltpd2 (glycolipid transfer protein domain containing 2),2,79.5,80.4,inactive
Gltpd2 (glycolipid transfer protein domain containing 2),3,92,101,inactive
"A3galt2 (alpha 1,3-galactosyltransferase 2)",1,57.6,89,inactive
"A3galt2 (alpha 1,3-galactosyltransferase 2)",2,76.5,83.1,inactive
"A3galt2 (alpha 1,3-galactosyltransferase 2)",3,58.4,67.1,inactive
Ssxb2 (SSX member B2),1,118,86.5,inactive
Ssxb2 (SSX member B2),2,89.7,72.7,inactive
Ssxb2 (SSX member B2),3,35.8,67,inactive
